In PubChem BioAssay AID504339 (National Center for Advancing Translational Sciences (NCATS), 2011):
In all, about 390,000 compounds went through this assay and about 17,000 (4.4%) were called active. All entries are inconclusive by the source's own rule. Clear calls are listed elsewhere. The call rests on the fitted dose curve; in most records, active means well fitted inhibition curve with a large enough effect; inconclusive means small, poorly fitted or top-dose-only effect; inactive means no such curve, though single readings can be large or run the other way. Some salts and complexes are drawn in separate pieces, as the source files them; their charges need not balance.

Chains of the proteins cited; added tags and fusions are not shown.
UniProt O75164, whole entry: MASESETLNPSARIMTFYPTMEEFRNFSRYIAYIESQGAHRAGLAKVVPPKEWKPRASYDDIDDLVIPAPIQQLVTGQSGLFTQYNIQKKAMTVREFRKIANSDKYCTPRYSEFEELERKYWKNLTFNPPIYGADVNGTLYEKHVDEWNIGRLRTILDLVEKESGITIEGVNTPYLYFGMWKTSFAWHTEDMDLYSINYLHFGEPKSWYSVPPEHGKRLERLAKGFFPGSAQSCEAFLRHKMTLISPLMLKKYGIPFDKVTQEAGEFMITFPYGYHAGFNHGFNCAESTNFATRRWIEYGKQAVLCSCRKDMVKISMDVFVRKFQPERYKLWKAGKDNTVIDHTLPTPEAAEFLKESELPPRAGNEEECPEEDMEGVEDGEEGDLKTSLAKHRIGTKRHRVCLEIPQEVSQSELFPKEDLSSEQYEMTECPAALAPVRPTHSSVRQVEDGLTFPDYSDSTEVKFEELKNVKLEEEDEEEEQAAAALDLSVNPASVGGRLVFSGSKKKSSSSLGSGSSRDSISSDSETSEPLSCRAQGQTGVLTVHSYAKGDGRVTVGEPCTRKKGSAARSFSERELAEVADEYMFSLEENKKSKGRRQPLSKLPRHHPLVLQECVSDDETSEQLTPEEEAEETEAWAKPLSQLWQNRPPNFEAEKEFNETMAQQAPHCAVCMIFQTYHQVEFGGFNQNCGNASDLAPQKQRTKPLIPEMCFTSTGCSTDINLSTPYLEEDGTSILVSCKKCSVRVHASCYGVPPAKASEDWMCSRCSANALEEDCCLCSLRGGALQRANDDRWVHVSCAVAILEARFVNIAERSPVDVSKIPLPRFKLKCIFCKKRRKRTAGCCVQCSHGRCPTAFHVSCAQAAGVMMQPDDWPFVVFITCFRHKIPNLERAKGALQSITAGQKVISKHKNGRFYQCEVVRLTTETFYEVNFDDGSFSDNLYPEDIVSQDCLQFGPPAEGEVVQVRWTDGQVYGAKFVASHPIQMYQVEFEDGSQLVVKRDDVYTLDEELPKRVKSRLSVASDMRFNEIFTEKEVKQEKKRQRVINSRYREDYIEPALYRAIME

Molecular target: Lysine-specific demethylase 4A (Homo sapiens) (UniProt O75164)
Test: qHTS Assay for Inhibitors of JMJD2A-Tudor Domain; further: nearly all actives have a fitted effect of over 50% in size
Conditions: AlphaScreen JMJD2A-Tudor / H3K4me3 peptide binding
Potency means the concentration at half of the fitted maximal effect.

How did the Potency turn out when `COc1ccc2c(c1O)-c1c(O)c(OC)cc3c1[C@H](C2)[N+](C)(C)CC3.O=[N+]([O-])c1cc([N+](=O)[O-])c([O-])c([N+](=O)[O-])c1[O-]` was run?
The Potency was inconclusive: 63.1 µM.

How did the Potency turn out when `COc1ccc(CN(CCCl)CCCl)cc1Cl` was run?
Its Potency is inconclusive: 63.1 µM.

How did the Potency turn out when `CC(C)c1ccc(NC2CCN(C(=O)OC(C)(C)C)CC2)cc1` was run?
The Potency was inconclusive: 39.8 µM.

`COc1ccc(NC2CCN(CCc3ccccc3)CC2)c(OC)c1` was tested. Which Potency did it give?
Its Potency is inconclusive: 35.5 µM.
